Laboratory results published in US5135955A, “Propanamine derivatives” (Eli Lilly and Company, priority 1989, dated 1992).
Counter-ions that a name gives are not always drawn. At least one structure is not confirmed: it was looked up by name or label, or the drawing left a doubt.

System: thromboplastin clotting time in human plasma
Assay: prothrombin time test (thromboplastin clotting time in human plasma)
Type: biochemical
Details: 37° C.
Description: Briefly, to 0.1 ml of each of human plasma, normal saline and thromboplastin was added 0.03 ml of the test compound of the present invention (2 mg/ml in 50 percent methanol). The clotting time was measured at 37° C. with a Fibrometer.
^a Expressed in seconds
^b Concentration of compound tested in micrograms per milliliter of […]

For `CCCCCOc1ccc(CCC(C)N)cc1` (stereo not drawn) [Example 36, α-Methyl-4-(pentyloxy)benzenepropanamine hydrochloride], the plasma prothrombin time (45 micrograms per milliliter of plasma) was 24 s, the plasma prothrombin time (90 micrograms per milliliter of plasma) was 41 s and the plasma prothrombin time (180 micrograms per milliliter of plasma) was 170 s.
